# The list shows a part of the results.
# B1: FGF1 (Homo sapiens), P05230 (protein)
# chain: MAEGEITTFTALTEKFNLPPGNYKKPKLLYSNGGHFLRILPDGTVDGTRDRSDQHIQLQLSAESVGEVYIKSTETGQYLAMTDGLLYGSQTPNEECLFLERLEENHYNTYISKHAEKNWFVGLKKNGSCKRGPRTHYGQAILFLPLPASSED
# Key:
# Assay in all cases: glycan array binding signal (z-score within array); higher = stronger binding
# Conditions in all cases: glycan notation: IUPAC condensed, linker removed
# [1] = target: Neu5Ac(a2-3)Gal
# In short: (§1)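 Columns mapping to the same glycan were averaged after glycan names were converted to IUPAC-condensed notation. The data come from 3228 arrays in the Consortium for Functional Glycomics database, limited to those with an available protein sequence. Binding is reported as a within-array Z-score averaged across arrays of one protein sequence and across linkers.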
# [2] = target: Neu5Ac(a2-3)Gal(b1-3)GalNAc
# In short: as §1
# [3] = target: Neu5Ac(a2-3)Gal(b1-3)GalNAc(b1-3)Gal(a1-4)Gal(b1-4)Glc
# In short: as §1
# [4] = target: Neu5Ac(a2-3)Gal(b1-3)GalNAc(b1-4)Gal(b1-4)Glc
# In short: as §1
# [5] = target: Neu5Ac(a2-3)Gal(b1-3)GalNAc(b1-4)[Neu5Ac(a2-3)]Gal(b1-4)Glc
# In short: as §1
# [6] = target: Neu5Ac(a2-3)Gal(b1-3)GalNAc(b1-4)[Neu5Ac(a2-8)Neu5Ac(a2-3)]Gal(b1-4)Glc
# In short: as §1
# [7] = target: Neu5Ac(a2-3)Gal(b1-3)GalNAc6S
# In short: as §1
# [8] = target: Neu5Ac(a2-3)Gal(b1-3)GlcNAc
# In short: as §1
# [9] = target: Neu5Ac(a2-3)Gal(b1-3)GlcNAc(b1-2)Man
# In short: as §1
# [10] = target: Neu5Ac(a2-3)Gal(b1-3)GlcNAc(b1-2)Man(a1-3)[GlcNAc(b1-4)][Neu5Ac(a2-3)Gal(b1-3)GlcNAc(b1-2)Man(a1-6)]Man(b1-4)GlcNAc(b1-4)GlcNAc
# In short: as §1
# [11] = target: Neu5Ac(a2-3)Gal(b1-3)GlcNAc(b1-2)Man(a1-3)[Neu5Ac(a2-3)Gal(b1-3)GlcNAc(b1-2)Man(a1-6)]Man(b1-4)GlcNAc(b1-4)GlcNAc
# In short: as §1
# [12] = target: Neu5Ac(a2-3)Gal(b1-3)GlcNAc(b1-2)[Neu5Ac(a2-3)Gal(b1-3)GlcNAc(b1-4)]Man(a1-6)[Neu5Ac(a2-3)Gal(b1-3)GlcNAc(b1-2)Man(a1-3)]Man(b1-4)GlcNAc(b1-4)GlcNAc
# In short: as §1
# [13] = target: Neu5Ac(a2-3)Gal(b1-3)GlcNAc(b1-3)Gal(b1-3)GlcNAc
# In short: as §1
# [14] = target: Neu5Ac(a2-3)Gal(b1-3)GlcNAc(b1-3)Gal(b1-4)GlcNAc
# In short: as §1
# [15] = target: Neu5Ac(a2-3)Gal(b1-3)GlcNAc(b1-3)GalNAc
# In short: as §1
# [16] = target: Neu5Ac(a2-3)Gal(b1-3)GlcNAc(b1-6)GalNAc
# In short: as §1
# [17] = target: Neu5Ac(a2-3)Gal(b1-3)GlcNAc6S
# In short: as §1
# [18] = target: Neu5Ac(a2-3)Gal(b1-3)[Fuc(a1-4)]GlcNAc
# In short: as §1
# [19] = target: Neu5Ac(a2-3)Gal(b1-3)[Fuc(a1-4)]GlcNAc(b1-3)Gal(b1-3)[Fuc(a1-4)]GlcNAc
# In short: as §1
# [20] = target: Neu5Ac(a2-3)Gal(b1-3)[Fuc(a1-4)]GlcNAc(b1-3)Gal(b1-4)[Fuc(a1-3)]GlcNAc
# In short: as §1
# [21] = target: Neu5Ac(a2-3)Gal(b1-3)[GlcNAc(b1-6)]GalNAc
# In short: as §1
# [22] = target: Neu5Ac(a2-3)Gal(b1-3)[Neu5Ac(a2-6)]GalNAc
# In short: as §1
# [23] = target: Neu5Ac(a2-3)Gal(b1-3)[Neu5Ac(a2-6)]GlcNAc(b1-3)[Fuc(a1-3)[Gal(b1-4)]GlcNAc(b1-6)]Gal(b1-4)Glc
# In short: as §1
# [24] = target: Neu5Ac(a2-3)Gal(b1-3)]Neu5Ac(a2-3)Gal(b1-4)]GlcNAc
# In short: as §1
# [25] = target: Neu5Ac(a2-3)Gal(b1-4)Glc
# In short: as §1
# [26] = target: Neu5Ac(a2-3)Gal(b1-4)GlcNAc
# In short: as §1
# [27] = target: Neu5Ac(a2-3)Gal(b1-4)GlcNAc(b1-2)Man
# In short: as §1
# [28] = target: Neu5Ac(a2-3)Gal(b1-4)GlcNAc(b1-2)Man(a1-3)[GlcNAc(b1-4)][Neu5Ac(a2-3)Gal(b1-4)GlcNAc(b1-2)Man(a1-6)]Man(b1-4)GlcNAc(b1-4)GlcNAc
# In short: as §1
# [29] = target: Neu5Ac(a2-3)Gal(b1-4)GlcNAc(b1-2)Man(a1-3)[Neu5Ac(a2-3)Gal(b1-4)GlcNAc(b1-2)Man(a1-6)]Man(b1-4)GlcNAc(b1-4)GlcNAc
# In short: as §1
# [30] = target: Neu5Ac(a2-3)Gal(b1-4)GlcNAc(b1-2)Man(a1-3)[Neu5Ac(a2-3)Gal(b1-4)GlcNAc(b1-2)Man(a1-6)]Man(b1-4)GlcNAc(b1-4)[Fuc(a1-6)]GlcNAc
# In short: as §1
# [31] = target: Neu5Ac(a2-3)Gal(b1-4)GlcNAc(b1-2)Man(a1-3)[Neu5Ac(a2-6)Gal(b1-4)GlcNAc(b1-2)Man(a1-6)]Man(b1-4)GlcNAc(b1-4)GlcNAc
# In short: as §1
# [32] = target: Neu5Ac(a2-3)Gal(b1-4)GlcNAc(b1-2)[Neu5Ac(a2-3)Gal(b1-4)GlcNAc(b1-4)]Man(a1-3)[GlcNAc(b1-4)][Neu5Ac(a2-3)Gal(b1-4)GlcNAc(b1-2)[Neu5Ac(a2-3)Gal(b1-4)GlcNAc(b1-6)]Man(a1-6)]Man(b1-4)GlcNAc(b1-4)GlcNAc
# In short: as §1
# [33] = target: Neu5Ac(a2-3)Gal(b1-4)GlcNAc(b1-2)[Neu5Ac(a2-3)Gal(b1-4)GlcNAc(b1-4)]Man(a1-3)[GlcNAc(b1-4)][Neu5Ac(a2-3)Gal(b1-4)GlcNAc(b1-4)Man(a1-6)]Man(b1-4)GlcNAc(b1-4)GlcNAc
# In short: as §1
# [34] = target: Neu5Ac(a2-3)Gal(b1-4)GlcNAc(b1-2)[Neu5Ac(a2-3)Gal(b1-4)GlcNAc(b1-6)]Man(a1-6)[Neu5Ac(a2-3)Gal(b1-4)GlcNAc(b1-2)Man(a1-3)][GlcNAc(b1-4)]Man(b1-4)GlcNAc(b1-4)GlcNAc
# In short: as §1
# [35] = target: Neu5Ac(a2-3)Gal(b1-4)GlcNAc(b1-3)Gal
# In short: as §1
# [36] = target: Neu5Ac(a2-3)Gal(b1-4)GlcNAc(b1-3)Gal(b1-3)GlcNAc
# In short: as §1
# [37] = target: Neu5Ac(a2-3)Gal(b1-4)GlcNAc(b1-3)Gal(b1-4)GlcNAc
# In short: as §1
# [38] = target: Neu5Ac(a2-3)Gal(b1-4)GlcNAc(b1-3)Gal(b1-4)GlcNAc(b1-2)Man(a1-3)[Neu5Ac(a2-3)Gal(b1-4)GlcNAc(b1-3)Gal(b1-4)GlcNAc(b1-2)Man(a1-6)]Man(b1-4)GlcNAc(b1-4)GlcNAc
# In short: as §1
# [39] = target: Neu5Ac(a2-3)Gal(b1-4)GlcNAc(b1-3)Gal(b1-4)GlcNAc(b1-3)Gal(b1-4)GlcNAc
# In short: as §1
# [40] = target: Neu5Ac(a2-3)Gal(b1-4)GlcNAc(b1-3)Gal(b1-4)GlcNAc(b1-3)Gal(b1-4)GlcNAc(b1-2)Man(a1-3)[Neu5Ac(a2-3)Gal(b1-4)GlcNAc(b1-3)Gal(b1-4)GlcNAc(b1-3)Gal(b1-4)GlcNAc(b1-2)Man(a1-6)]GalNAc
# In short: as §1
# [41] = target: Neu5Ac(a2-3)Gal(b1-4)GlcNAc(b1-3)Gal(b1-4)GlcNAc(b1-3)GalNAc
# In short: as §1
# [42] = target: Neu5Ac(a2-3)Gal(b1-4)GlcNAc(b1-3)Gal(b1-4)GlcNAc(b1-3)[Neu5Ac(a2-3)Gal(b1-4)GlcNAc(b1-3)Gal(b1-4)GlcNAc(b1-6)]GalNAc
# In short: as §1
# [43] = target: Neu5Ac(a2-3)Gal(b1-4)GlcNAc(b1-3)Gal(b1-4)GlcNAc(b1-6)[Gal(b1-3)]GalNAc
# In short: as §1
# [44] = target: Neu5Ac(a2-3)Gal(b1-4)GlcNAc(b1-3)Gal(b1-4)[Fuc(a1-3)]GlcNAc
# In short: as §1
# [45] = target: Neu5Ac(a2-3)Gal(b1-4)GlcNAc(b1-3)GalNAc
# In short: as §1
binder,measurement,setting,value
B1,glycan array binding signal (z-score),[1],-0.196
same,glycan array binding signal (z-score),[2],0.143
same,glycan array binding signal (z-score),[3],-0.299
same,glycan array binding signal (z-score),[4],-0.819
same,glycan array binding signal (z-score),[5],-0.511
same,glycan array binding signal (z-score),[6],-0.85
same,glycan array binding signal (z-score),[7],0.045
same,glycan array binding signal (z-score),[8],0.757
same,glycan array binding signal (z-score),[9],-0.797
same,glycan array binding signal (z-score),[10],0.01
same,glycan array binding signal (z-score),[11],4.88
same,glycan array binding signal (z-score),[12],1.02
same,glycan array binding signal (z-score),[13],-0.881
same,glycan array binding signal (z-score),[14],-0.691
same,glycan array binding signal (z-score),[15],-0.187
same,glycan array binding signal (z-score),[16],-0.537
same,glycan array binding signal (z-score),[17],1.43
same,glycan array binding signal (z-score),[18],-0.174
same,glycan array binding signal (z-score),[19],-0.247
same,glycan array binding signal (z-score),[20],0.434
same,glycan array binding signal (z-score),[21],-0.601
same,glycan array binding signal (z-score),[22],0.473
same,glycan array binding signal (z-score),[23],-0.432
same,glycan array binding signal (z-score),[24],-0.971
same,glycan array binding signal (z-score),[25],0.546
same,glycan array binding signal (z-score),[26],-0.519
same,glycan array binding signal (z-score),[27],5.56
same,glycan array binding signal (z-score),[28],-0.826
same,glycan array binding signal (z-score),[29],-0.84
same,glycan array binding signal (z-score),[30],-0.801
same,glycan array binding signal (z-score),[31],-0.888
same,glycan array binding signal (z-score),[32],-0.618
same,glycan array binding signal (z-score),[33],-0.334
same,glycan array binding signal (z-score),[34],-0.625
same,glycan array binding signal (z-score),[35],-0.867
same,glycan array binding signal (z-score),[36],-0.884
same,glycan array binding signal (z-score),[37],-0.791
same,glycan array binding signal (z-score),[38],0.262
same,glycan array binding signal (z-score),[39],-0.117
same,glycan array binding signal (z-score),[40],0.631
same,glycan array binding signal (z-score),[41],-0.451
same,glycan array binding signal (z-score),[42],0.416
same,glycan array binding signal (z-score),[43],-0.573
same,glycan array binding signal (z-score),[44],-0.732
same,glycan array binding signal (z-score),[45],-0.219

# A different layout for part of the listing above.
binder | measurement | setting | value
B1 | glycan array binding signal (z-score) | [8] | 0.757
same | glycan array binding signal (z-score) | [33] | -0.334

# Reference: the supplement of paper PMC8728848
